Assay results: doi:10.1101/2021.05.31.446377
No constants are given. Whether binding was seen depends on the method and setting. In cells and extracts the contact can be indirect. Binding can be weak; no strength is given.

Columns and labels:
[1] = target: T1, Mitofilin/MIC60 (human (endogenous in fibroblasts)) (UniProt Q16891); test: co-IP
T1 sequence: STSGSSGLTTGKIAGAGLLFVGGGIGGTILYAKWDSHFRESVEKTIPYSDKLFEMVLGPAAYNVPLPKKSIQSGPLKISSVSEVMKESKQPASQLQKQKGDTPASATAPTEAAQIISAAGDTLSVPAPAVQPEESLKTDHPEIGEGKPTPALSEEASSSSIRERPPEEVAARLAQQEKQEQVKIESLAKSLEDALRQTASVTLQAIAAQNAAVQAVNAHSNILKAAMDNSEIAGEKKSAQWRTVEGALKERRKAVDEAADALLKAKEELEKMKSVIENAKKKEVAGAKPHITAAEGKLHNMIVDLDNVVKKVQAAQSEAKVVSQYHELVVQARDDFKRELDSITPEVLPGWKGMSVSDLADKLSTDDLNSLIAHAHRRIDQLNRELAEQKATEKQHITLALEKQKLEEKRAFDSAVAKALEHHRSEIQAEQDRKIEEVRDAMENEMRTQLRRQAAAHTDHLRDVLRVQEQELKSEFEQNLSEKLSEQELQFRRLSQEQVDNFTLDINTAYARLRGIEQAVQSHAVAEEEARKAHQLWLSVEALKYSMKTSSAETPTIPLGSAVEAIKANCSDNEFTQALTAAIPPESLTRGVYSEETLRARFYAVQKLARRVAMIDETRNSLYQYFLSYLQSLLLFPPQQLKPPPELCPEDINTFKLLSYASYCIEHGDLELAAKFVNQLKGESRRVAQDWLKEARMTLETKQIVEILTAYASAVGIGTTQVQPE

[2] = target: T1, Mitofilin/MIC60 (human (endogenous in fibroblasts)); test: proximity ligation

For “OPA1 (Optic Atrophy type 1) (human (endogenous in fibroblasts))”, the binding [1] was “binds” and the binding [2] was “binds”.
